This is one part of the list.

Protein sequences, listed by entry. Tags and fused reporters are not part of them. Lines headed by an entry give the natural chain unless they say otherwise; changes in a name come on top.
UniProt P49815: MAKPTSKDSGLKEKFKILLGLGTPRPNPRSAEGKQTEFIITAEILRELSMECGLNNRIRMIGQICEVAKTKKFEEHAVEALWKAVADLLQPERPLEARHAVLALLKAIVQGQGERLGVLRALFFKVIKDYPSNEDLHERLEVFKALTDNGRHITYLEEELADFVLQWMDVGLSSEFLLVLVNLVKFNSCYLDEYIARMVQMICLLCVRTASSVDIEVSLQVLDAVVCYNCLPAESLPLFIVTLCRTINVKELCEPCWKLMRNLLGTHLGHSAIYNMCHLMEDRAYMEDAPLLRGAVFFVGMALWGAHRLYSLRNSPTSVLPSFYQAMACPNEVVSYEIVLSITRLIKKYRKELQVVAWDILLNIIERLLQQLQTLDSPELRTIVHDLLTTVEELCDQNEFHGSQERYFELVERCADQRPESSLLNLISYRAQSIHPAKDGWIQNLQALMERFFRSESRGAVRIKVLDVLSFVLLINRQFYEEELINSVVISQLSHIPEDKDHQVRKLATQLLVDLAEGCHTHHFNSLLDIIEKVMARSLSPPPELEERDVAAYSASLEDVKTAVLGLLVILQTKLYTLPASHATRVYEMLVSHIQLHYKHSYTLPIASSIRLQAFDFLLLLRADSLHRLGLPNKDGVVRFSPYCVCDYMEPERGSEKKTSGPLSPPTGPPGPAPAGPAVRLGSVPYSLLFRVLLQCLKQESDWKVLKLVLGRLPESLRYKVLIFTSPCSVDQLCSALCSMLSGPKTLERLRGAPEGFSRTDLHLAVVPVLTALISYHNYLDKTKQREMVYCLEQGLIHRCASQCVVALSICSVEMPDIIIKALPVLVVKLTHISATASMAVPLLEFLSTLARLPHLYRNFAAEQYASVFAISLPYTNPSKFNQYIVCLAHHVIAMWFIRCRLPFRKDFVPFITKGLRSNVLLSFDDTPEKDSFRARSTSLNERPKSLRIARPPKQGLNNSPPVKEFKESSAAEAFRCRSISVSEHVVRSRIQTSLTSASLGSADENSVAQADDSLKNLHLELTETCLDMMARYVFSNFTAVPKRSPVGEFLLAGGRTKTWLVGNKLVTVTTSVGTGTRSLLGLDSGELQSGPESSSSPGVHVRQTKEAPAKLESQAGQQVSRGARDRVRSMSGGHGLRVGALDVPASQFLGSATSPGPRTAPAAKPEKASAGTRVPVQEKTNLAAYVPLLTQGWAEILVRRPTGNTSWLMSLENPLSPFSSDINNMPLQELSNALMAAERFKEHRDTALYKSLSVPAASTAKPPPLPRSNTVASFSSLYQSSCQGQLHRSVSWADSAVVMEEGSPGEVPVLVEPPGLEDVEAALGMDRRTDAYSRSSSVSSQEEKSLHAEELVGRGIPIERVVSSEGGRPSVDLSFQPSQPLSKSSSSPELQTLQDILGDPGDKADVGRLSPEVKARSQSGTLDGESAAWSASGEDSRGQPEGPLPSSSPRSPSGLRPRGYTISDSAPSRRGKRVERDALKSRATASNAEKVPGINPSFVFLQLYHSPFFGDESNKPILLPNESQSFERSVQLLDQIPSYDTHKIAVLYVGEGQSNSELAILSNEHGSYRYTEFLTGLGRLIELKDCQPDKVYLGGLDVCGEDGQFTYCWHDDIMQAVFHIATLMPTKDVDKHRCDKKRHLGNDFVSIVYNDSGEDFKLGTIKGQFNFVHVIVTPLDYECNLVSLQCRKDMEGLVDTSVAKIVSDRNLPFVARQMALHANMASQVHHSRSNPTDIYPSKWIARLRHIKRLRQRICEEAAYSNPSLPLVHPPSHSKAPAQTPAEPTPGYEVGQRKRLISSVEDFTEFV
UniProt Q15025: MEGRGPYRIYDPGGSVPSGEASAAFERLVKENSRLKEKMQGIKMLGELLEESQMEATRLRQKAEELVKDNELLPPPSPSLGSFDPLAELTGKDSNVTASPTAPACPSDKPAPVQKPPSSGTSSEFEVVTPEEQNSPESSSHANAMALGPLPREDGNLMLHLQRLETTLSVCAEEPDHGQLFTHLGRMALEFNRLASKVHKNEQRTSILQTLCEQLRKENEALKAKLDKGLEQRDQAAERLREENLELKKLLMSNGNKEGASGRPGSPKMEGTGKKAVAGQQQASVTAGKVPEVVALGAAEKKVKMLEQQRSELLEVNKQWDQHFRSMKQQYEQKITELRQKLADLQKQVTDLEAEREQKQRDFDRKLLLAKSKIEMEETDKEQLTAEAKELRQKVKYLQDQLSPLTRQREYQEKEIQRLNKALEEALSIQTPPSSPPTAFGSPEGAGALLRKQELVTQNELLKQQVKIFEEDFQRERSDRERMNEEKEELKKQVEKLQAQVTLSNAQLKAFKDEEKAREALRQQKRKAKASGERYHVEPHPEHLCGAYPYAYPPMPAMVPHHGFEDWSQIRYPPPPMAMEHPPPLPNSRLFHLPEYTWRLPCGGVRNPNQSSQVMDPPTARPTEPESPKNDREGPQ
UniProt Q9C037: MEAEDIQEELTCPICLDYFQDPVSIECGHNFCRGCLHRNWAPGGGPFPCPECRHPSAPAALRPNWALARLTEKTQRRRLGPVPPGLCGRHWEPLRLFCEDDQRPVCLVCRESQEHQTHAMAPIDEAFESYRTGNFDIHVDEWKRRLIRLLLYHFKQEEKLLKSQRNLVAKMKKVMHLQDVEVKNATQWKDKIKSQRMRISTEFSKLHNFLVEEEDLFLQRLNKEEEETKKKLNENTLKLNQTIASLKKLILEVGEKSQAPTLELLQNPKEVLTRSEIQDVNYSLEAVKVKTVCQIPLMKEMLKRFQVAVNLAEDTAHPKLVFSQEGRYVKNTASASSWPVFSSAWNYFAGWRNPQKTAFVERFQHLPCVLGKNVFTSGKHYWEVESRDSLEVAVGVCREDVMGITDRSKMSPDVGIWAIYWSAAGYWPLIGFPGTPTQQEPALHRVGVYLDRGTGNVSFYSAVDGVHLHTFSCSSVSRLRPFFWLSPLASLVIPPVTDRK
UniProt Q9H4I3: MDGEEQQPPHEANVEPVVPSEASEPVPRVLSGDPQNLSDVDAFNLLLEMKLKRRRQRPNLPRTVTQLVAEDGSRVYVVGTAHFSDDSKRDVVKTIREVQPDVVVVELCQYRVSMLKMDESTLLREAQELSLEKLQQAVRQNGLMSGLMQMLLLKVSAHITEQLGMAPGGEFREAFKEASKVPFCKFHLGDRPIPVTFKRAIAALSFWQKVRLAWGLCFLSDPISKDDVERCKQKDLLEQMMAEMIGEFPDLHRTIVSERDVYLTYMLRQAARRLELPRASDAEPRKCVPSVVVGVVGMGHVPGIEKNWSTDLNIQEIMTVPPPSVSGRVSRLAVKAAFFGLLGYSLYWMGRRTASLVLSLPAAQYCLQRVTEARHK
UniProt Q15035: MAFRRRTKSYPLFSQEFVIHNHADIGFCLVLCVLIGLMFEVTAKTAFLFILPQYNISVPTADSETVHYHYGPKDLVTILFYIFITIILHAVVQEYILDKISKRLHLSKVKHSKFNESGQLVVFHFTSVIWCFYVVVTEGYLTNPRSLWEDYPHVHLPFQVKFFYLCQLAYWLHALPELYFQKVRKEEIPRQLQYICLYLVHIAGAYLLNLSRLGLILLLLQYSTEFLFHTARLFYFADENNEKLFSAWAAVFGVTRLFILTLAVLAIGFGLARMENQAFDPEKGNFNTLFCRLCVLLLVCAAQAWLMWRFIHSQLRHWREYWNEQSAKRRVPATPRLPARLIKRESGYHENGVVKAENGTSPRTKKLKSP
UniProt O43399: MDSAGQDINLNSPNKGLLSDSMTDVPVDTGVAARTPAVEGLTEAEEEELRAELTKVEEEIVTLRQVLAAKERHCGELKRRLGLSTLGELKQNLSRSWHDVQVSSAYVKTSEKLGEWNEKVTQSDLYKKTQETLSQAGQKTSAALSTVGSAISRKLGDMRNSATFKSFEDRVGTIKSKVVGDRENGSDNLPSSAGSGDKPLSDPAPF
UniProt Q12815: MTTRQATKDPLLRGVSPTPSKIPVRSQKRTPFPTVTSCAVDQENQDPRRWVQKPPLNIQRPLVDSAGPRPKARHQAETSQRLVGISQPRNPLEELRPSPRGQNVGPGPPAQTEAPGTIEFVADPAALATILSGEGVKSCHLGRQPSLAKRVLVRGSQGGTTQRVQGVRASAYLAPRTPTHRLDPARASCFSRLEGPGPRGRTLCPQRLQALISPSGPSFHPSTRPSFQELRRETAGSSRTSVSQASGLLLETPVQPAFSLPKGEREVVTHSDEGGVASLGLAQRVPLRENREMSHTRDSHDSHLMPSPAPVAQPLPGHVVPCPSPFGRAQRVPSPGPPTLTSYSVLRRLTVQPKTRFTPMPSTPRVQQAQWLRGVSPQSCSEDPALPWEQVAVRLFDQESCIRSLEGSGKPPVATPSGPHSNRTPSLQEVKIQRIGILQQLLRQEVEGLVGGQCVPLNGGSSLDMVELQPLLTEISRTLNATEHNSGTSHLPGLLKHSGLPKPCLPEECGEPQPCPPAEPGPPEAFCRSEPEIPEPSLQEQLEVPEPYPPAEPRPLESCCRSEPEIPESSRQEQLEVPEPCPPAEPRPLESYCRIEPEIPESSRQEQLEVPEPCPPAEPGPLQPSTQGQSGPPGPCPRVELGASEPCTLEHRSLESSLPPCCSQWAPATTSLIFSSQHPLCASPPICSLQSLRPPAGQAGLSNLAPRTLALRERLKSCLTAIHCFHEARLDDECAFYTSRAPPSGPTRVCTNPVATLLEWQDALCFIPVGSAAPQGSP
UniProt Q32P41: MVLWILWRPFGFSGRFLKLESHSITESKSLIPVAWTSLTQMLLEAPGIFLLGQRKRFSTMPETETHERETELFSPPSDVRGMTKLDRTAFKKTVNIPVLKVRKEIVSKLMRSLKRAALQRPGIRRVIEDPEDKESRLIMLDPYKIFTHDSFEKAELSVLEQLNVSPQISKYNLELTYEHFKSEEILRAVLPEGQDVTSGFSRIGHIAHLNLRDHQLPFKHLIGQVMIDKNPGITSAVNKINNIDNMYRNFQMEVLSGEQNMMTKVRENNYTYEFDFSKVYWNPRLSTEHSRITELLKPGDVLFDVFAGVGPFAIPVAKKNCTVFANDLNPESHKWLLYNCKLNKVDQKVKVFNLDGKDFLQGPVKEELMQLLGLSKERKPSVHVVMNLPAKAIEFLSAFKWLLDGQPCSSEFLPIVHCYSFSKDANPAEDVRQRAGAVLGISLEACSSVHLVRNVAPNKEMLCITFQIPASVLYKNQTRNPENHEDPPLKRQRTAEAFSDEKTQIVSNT
UniProt O60784, whole entry, looked up: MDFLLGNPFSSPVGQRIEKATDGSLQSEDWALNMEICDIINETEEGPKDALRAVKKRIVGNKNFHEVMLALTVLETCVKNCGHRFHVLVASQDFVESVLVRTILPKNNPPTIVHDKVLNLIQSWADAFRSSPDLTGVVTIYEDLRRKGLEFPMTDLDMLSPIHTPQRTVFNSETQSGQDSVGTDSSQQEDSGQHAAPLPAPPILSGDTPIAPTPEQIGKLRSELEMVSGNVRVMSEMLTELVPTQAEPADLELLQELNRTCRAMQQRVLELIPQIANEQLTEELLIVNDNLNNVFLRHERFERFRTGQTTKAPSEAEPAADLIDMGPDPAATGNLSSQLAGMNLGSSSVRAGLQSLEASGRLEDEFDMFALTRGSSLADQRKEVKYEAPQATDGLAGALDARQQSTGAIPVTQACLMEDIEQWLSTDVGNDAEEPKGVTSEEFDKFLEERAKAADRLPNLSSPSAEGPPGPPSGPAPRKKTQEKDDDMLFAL
UniProt Q86W33: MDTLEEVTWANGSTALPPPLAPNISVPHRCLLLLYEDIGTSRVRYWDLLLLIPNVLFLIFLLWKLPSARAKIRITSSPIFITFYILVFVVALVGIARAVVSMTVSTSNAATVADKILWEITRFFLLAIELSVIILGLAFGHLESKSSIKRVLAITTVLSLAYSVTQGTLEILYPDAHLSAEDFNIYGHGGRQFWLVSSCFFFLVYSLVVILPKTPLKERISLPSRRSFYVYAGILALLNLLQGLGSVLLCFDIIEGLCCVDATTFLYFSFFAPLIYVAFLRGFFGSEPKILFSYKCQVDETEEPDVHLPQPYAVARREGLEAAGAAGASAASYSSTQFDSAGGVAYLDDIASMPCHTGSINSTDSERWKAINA
UniProt P14373: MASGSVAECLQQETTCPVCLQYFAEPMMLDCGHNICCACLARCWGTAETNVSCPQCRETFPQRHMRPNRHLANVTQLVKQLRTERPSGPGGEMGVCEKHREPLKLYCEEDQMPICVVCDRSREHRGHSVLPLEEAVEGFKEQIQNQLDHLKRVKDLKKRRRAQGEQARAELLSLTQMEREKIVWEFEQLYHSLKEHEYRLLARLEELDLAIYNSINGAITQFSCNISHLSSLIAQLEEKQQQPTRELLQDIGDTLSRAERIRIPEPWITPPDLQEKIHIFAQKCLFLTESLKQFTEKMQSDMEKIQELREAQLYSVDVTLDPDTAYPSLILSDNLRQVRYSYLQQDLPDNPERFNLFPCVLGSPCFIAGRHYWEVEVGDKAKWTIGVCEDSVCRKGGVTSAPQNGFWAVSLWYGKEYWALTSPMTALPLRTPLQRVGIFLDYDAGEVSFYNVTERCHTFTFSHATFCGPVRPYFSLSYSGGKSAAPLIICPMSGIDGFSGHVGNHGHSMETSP

Compound in one test: CS(=O)(=O)CCNCc1ccc(-c2ccc3ncnc(Nc4ccc(OCc5cccc(F)c5)c(Cl)c4)c3c2)o1 [lapatinib]
The test can be described thus: log2 fold change, soluble protein after heating vs DMSO (PISA); higher = thermal stabilisation; K562 cells, 10 uM, 30 min; active = over 0.2 and 3.5 SD of the protein, either way, in both replicates (recomputed). In a few lines: (§1)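 Values are thermal stability changes relative to control samples and are taken from duplicates. They are stated as log2 fold changes. Before quantification by TMTpro 16plex LC-MS/MS with equalised channel sums, K562 cells at 2×10^6 cells/mL were treated with 10 μM compound for 30 min, heated in aliquots for 3 min across 48°C-58°C, pooled, extracted in PBS with 0.5% NP-40 at 4°C, and centrifuged at 21,000xg for 90 min to give the soluble supernatant.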
As to TSC2 (UniProt P49815), the log2 fold change was inactive: 0.135.

In the case of TPRG1L (UniProt Q5T0D9), the log2 fold change was inactive: 0.118.

As for TNIP1 (UniProt Q15025), the log2 fold change was inactive: -0.131.

As to TRIM4 (UniProt Q9C037), the log2 fold change is inactive: -0.011.

Turning to TRAPPC6A isoform 2 (UniProt O75865), the log2 fold change was inactive: 0.13.

For the target TRABD (UniProt Q9H4I3), the log2 fold change was inactive: 0.081.

Take TRAM2 (UniProt Q15035): the log2 fold change is inactive: -0.103.

For TNKS (UniProt O95271), the log2 fold change is inactive: 0.013.

For TRAF7 (UniProt Q6Q0C0), the log2 fold change was inactive: 0.057.

Compound in a further test: CS(=O)(=O)N1CCN(Cc2cc3nc(-c4cccc5[nH]ncc45)nc(N4CCOCC4)c3s2)CC1 [pictilisib]
The description is as above. In a few lines: as §1
On to TSC2 (UniProt P49815), for which the log2 fold change is inactive: 0.076.

TPD52L2 isoform 3 (UniProt O43399): the log2 fold change was inactive: 0.499.

For the target TRIM4 (UniProt Q9C037), the log2 fold change is inactive: 0.202.

Turning to TROAP (UniProt Q12815), the log2 fold change was inactive: -0.062.

With TRABD (UniProt Q9H4I3), the log2 fold change was inactive: 0.15.

TRMT5 (UniProt Q32P41): the log2 fold change was inactive: 0.077.

As to TRIP12 isoform 3 (UniProt Q14669), the log2 fold change was inactive: -0.087.

For the target TOM1 (UniProt O60784), the log2 fold change was inactive: 0.171.

Consider TPRA1 (UniProt Q86W33), for which the log2 fold change is inactive: -0.13.

As to TRIM27 (UniProt P14373), the log2 fold change was inactive: 0.019.

For the origin of these results see the supplement of paper PMC10849652.
